# Percent effect of library compounds

Amino acid sequences for entries named in this document (tags omitted).
UniProt P9WNZ1, whole entry: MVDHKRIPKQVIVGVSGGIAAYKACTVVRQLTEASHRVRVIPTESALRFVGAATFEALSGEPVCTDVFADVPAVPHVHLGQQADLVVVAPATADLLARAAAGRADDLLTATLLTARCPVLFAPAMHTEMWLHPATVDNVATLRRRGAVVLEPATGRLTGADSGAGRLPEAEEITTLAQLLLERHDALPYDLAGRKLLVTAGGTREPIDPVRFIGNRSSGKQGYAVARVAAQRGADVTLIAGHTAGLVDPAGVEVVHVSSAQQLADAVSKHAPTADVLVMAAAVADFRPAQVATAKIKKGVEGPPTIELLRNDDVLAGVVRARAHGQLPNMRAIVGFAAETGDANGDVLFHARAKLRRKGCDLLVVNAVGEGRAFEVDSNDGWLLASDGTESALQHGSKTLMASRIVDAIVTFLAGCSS

From ChEMBL document CHEMBL3988442, “University of Dundee, Small-Polar-MMV Screening Library” (2021).

A: 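Assay of Toxoplasma gondii numbers, read through their beta-galactosidase reporter with a colour substrate. Concentration: 10 µM. Higher reads as fewer parasites (inferred from which compounds were picked for retests). Size under these conditions: about 67,000 compounds, about 260 of them at 50% or above in at least one test.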
B: 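Coenzyme A biosynthesis protein CoaBC, Mycobacterium tuberculosis (UniProt P9WNZ1). Enzyme assay of CoaBC with a phosphate dye (Biomol Green) read at 650 nm. Tested at 30 µM. Direction is inferred from only a few compounds that gave an IC50; most scored high, so higher reads as stronger inhibition. Most strong results did not repeat in a second test. Size under these conditions: about 67,000 compounds, about 40 of them at 50% or above in at least one test.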

The filed quantity is “Percent Effect” (%). The record does not define 0% and 100%; most values in the screen are far below 50% and negative numbers occur (in some assays of this library far below -100). Compounds were drawn at random from those tested, without regard to their results.

* COCCCNC(=O)CCn1ncc2c(Cl)cccc21 : A: 3.838%; B: 0.2309%
* CC1=N[C@@]2(CC[C@@H]3CN(Cc4ccccc4F)C[C@@H]32)C(=O)N1C : B: 3.765%
* Cc1cccc(CN2C[C@@H]3CCCO[C@@H]3[C@H](NS(C)(=O)=O)C2)n1 : B: 2.665%
* Cc1ccc2c(c1C)OCC2NCc1cccc(C#N)c1 (stereo not drawn) : A: -9.302%; B: 3.099%
* O=C(O)C(F)(F)F.[H][C@]12CCC[C@@H](CN(C)C)[C@@]1([H])CN(c1nccc(C(F)(F)F)n1)C2 : A: 8.745%
* CCc1ccc(CN(CCN(C)C)Cc2ccc(C)s2)nc1 : A: 19.98%; B: -15.9%
* CCN(C(=O)CSc1ccc(C(F)(F)F)cn1)C1CC1 : A: -2.908%; B: 0.3205%
* COCC(=O)NC[C@H]1C[C@@H]2CCN1C[C@@H]2CN(C)c1ccccc1 : B: 9.934%
* Cc1cccn2cc(CC(=O)N(CCN(C)C)CC3CCCO3)nc12 (stereo not drawn) : A: -2.277%; B: -28.64%
* N#Cc1cc2c(=O)n(CC(O)c3cccc(O)c3)ccc2[nH]c1=O (stereo not drawn) : A: -4.899%; B: 14.2%
* Cc1cc2nc(SCC(=O)N3CCOCC3)n(C(C)C)c(=O)c2[nH]1 : A: -11.73%; B: -1.772%
* CCC(CNS(C)(=O)=O)Oc1ccccc1C (stereo not drawn) : A: 2.801%; B: 5.179%
* CCOC1COC2(CCN(Cc3cccc(F)c3)CC2)C1 (stereo not drawn) : B: 3.144%
* CC(C)c1cc(CNC(=O)NCc2cccc(N3CC=CC3)c2)on1 : A: -58.61%; B: 11.93%
* CCN1CCOCC2(CCCN(C(=O)c3ccccc3F)C2)C1.O=C(O)C(F)(F)F (stereo not drawn) : A: 8.191%
* O=C(COc1ccccc1)NS(=O)(=O)Cc1ccccc1 : A: 6.253%; B: 19.22%
* CCC(CCNC(=O)c1cc(C2CC2)nc2c1cnn2C)n1cccn1 (stereo not drawn) : A: -3.701%; B: 1.01%
* CCN(Cc1ccncc1)C(=O)CCn1c(C)cc2ccccc21 : A: 3.937%; B: 15.89%
* COc1cc(CNC(C)Cn2ccnc2)cc2c1OCO2 (stereo not drawn) : B: -5.058%
* O=c1[nH]c(-c2ccncc2)ncc1-c1ccnc(NC2CCCCC2)n1 : A: 13.73%; B: -1.325%
* COc1ccc(OCCN(C)CCCn2cnc3c(N)ncnc32)cc1 : A: 7.58%; B: -0.4959%
* CN(Cc1ccco1)C[C@H]1OC[C@@H]2CCN(Cc3cccs3)C[C@@H]21 : B: 4.695%
* O=C(c1ncccn1)N1CCC[C@]2(C[C@H](OCC3CC3)CO2)C1 : A: -30.98%; B: 3.75%
* C[C@@H]1CN(C(=O)CSc2nncn2C)C[C@@]1(O)C1CC1 : A: 17.89%; B: 7.579%
* COc1ccccc1Oc1ncccc1CNC(=O)C(C)CN (stereo not drawn) : A: -3.888%; B: 4.142%
* COCCN(c1ccncc1)S(=O)(=O)c1cc(C)cc(F)c1 : A: -0.885%; B: 7.131%
* CCn1cc(CN(C)S(=O)(=O)c2cc(Cl)ccc2Cl)cn1 : A: -1.435%; B: 0.9421%
* Cc1ccc(C2(CN3CCN(Cc4cn(C)nc4C)CC3)CC2)cc1.Cl : A: -21.58%
* Cc1cnc(N2C(=O)CSC2c2ccccc2)s1 (stereo not drawn) : A: 1.52%; B: 8.277%
* O=C(CCC(=O)N1CCOCC1c1ccccc1)c1cccs1 (stereo not drawn) : A: -9.029%; B: 1.98%
* O=C(NC1(C(=O)NCC2CC2)CCCC1)C1Cc2cc(F)ccc2O1 (stereo not drawn) : A: 0.06242%; B: 5.652%
* O=C(O)C(F)(F)F.O=C(O)C(F)(F)F.[H][C@@]12COC[C@]1(COCc1ccccn1)CN(c1cc(OC)ncn1)C2 : A: -14.29%
* O=C(NCCc1ccsc1)Nc1cccnc1N1CCCC1 : A: -1.569%; B: 6.845%
* Cn1cc(N2CC3(CCN(Cc4cccnc4)CC3)OCC2=O)cn1.O=C(O)C(F)(F)F.O=C(O)C(F)(F)F : A: -7.118%
* CC(C)c1nc(CN(C)C2CCN(Cc3nnc(C4CC4)o3)C2)no1 (stereo not drawn) : A: 4.107%; B: -9.115%
* COc1cccc2c1OCC(CNc1cc(N)nc(SC)n1)C2 (stereo not drawn) : A: -10.39%; B: -0.7371%
* Cn1ccnc1CN1C[C@@H](F)[C@@H](OCc2nc3cnccc3[nH]2)C1 : A: -6.916%; B: -6.876%